{"source": "the supplement of paper PMC12889115", "test_system": "Salmonella enterica serovar Typhimurium SL1344", "assay": "bacterial growth OD600 after 18 h with compound and polymyxin B; higher = more bacterial growth (less inhibition)", "conditions": "50 µM, Mueller-Hinton broth", "note": "Some of the results follow. These are raw signals, not scaled to a control.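 In the initial screen, polymyxin B was used at a concentration that permeabilizes Salmonella's outer membrane but not its inner membrane. Maximum growth was set by DMSO wells with or without polymyxin B. Since plates varied, data were ranked per plate, and compounds giving the lowest OD600 advanced as hits.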", "data": [{"smiles": "Cc1cccc(CN2CCCC(O)(CNCc3nc(C)cc(C)n3)C2=O)c1", "note": "(stereo not given)", "values": [{"measurement": "bacterial growth OD600", "setting": "polymyxin B 0.75 µg/mL", "value": 0.831}]}, {"smiles": "O=C(CSc1ccccn1)NCCN1Cc2ccccc2OC(c2ccccc2F)C1", "note": "(stereo not given)", "values": [{"measurement": "bacterial growth OD600", "setting": "polymyxin B 0.75 µg/mL", "value": 0.044}]}, {"smiles": "CN(CC1Cc2ccccc2O1)C(=O)CCC1(Cc2cccs2)CCC(=O)N1", "note": "(stereo not given)", "values": [{"measurement": "bacterial growth OD600", "setting": "polymyxin B 0.75 µg/mL", "value": 0.871}]}, {"smiles": "CN(C)c1ncc2c(n1)CCCC2NC1CCC1", "note": "(stereo not given)", "values": [{"measurement": "bacterial growth OD600", "setting": "polymyxin B 1 µg/mL", "value": 0.902}]}, {"smiles": "Cc1ccc(SC2CCN(C(=O)C3CCC(=O)N(CCN4CCOCC4)C3)CC2)cc1", "note": "(stereo not given)", "values": [{"measurement": "bacterial growth OD600", "setting": "polymyxin B 1 µg/mL", "value": 1.08}]}, {"smiles": "COc1cccc(-c2ccc(NC(=O)C3CCCN(C(=O)c4cnsn4)C3)cc2)c1", "note": "(stereo not given)", "values": [{"measurement": "bacterial growth OD600", "setting": "polymyxin B 1 µg/mL", "value": 0.02}]}, {"smiles": "COc1ccc(CCNC2CCN(c3ccc(C(=O)N[C@H]4CCCCNC4=O)cc3)CC2)cc1", "values": [{"measurement": "bacterial growth OD600", "setting": "polymyxin B 0.75 µg/mL", "value": 0.729}]}, {"smiles": "O=C(c1cccc(Cl)c1)N1CCCC(Nc2ccc(F)cc2)C1", "note": "(stereo not given)", "values": [{"measurement": "bacterial growth OD600", "setting": "polymyxin B 1 µg/mL", "value": 1.07}]}, {"smiles": "COC(=O)c1cccc(C(=O)N(C)CC2CCN(CCc3ccc(F)cc3)CC2)c1", "values": [{"measurement": "bacterial growth OD600", "setting": "polymyxin B 1 µg/mL", "value": 1.14}]}, {"smiles": "Cc1nc2ccccc2n1Cc1cc(C(=O)N(Cc2cnn(C)c2)C(C)C)n[nH]1", "values": [{"measurement": "bacterial growth OD600", "setting": "polymyxin B 1 µg/mL", "value": 0.949}]}, {"smiles": "Cc1cc(C)n(CC(C)NC(=O)c2coc(Cn3cnc4ccccc43)n2)n1", "note": "(stereo not given)", "values": [{"measurement": "bacterial growth OD600", "setting": "polymyxin B 1 µg/mL", "value": 0.822}]}, {"smiles": "O=C(CC1=CCCCC1)N1CCC(C2(c3ccccn3)NC(=O)N(CCc3cccs3)C2=O)CC1", "note": "(stereo not given)", "values": [{"measurement": "bacterial growth OD600", "setting": "polymyxin B 0.75 µg/mL", "value": 0.853}]}, {"smiles": "CC(C)Nc1ccc(C(=O)N2CCCCC2CCn2cccn2)cn1", "note": "(stereo not given)", "values": [{"measurement": "bacterial growth OD600", "setting": "polymyxin B 1 µg/mL", "value": 0.827}]}, {"smiles": "CCC(=O)N[C@@H]1c2ccccc2C2(CCN(C(=O)CCC(=O)OC)CC2)[C@H]1OCc1cccnc1", "values": [{"measurement": "bacterial growth OD600", "setting": "polymyxin B 0.75 µg/mL", "value": 0.752}]}, {"smiles": "O=C(c1ccc(NC2CCC2)nc1)N1CCCCC1CCn1cccn1", "note": "(stereo not given)", "values": [{"measurement": "bacterial growth OD600", "setting": "polymyxin B 1 µg/mL", "value": 0.93}]}, {"smiles": "O=C(NCC1(N2CCOCC2)CCCC1)c1coc(COc2cccc(F)c2)n1", "values": [{"measurement": "bacterial growth OD600", "setting": "polymyxin B 1 µg/mL", "value": 0.884}]}, {"smiles": "COc1ccc(OCc2cc(C(=O)N3CCCCC3CO)n[nH]2)c(Cl)c1", "note": "(stereo not given)", "values": [{"measurement": "bacterial growth OD600", "setting": "polymyxin B 1 µg/mL", "value": 0.881}]}, {"smiles": "CCN1C(=O)CC(CC(=O)N2CCC[C@H]2C(=O)OC)(c2cccc(C(F)(F)F)c2)C1=O", "note": "(stereo not given in full)", "values": [{"measurement": "bacterial growth OD600", "setting": "polymyxin B 0.75 µg/mL", "value": 0.759}]}, {"smiles": "COCCN(CC1CCCN(C2Cc3ccccc3C2)C1)C(=O)C1CCCC1", "note": "(stereo not given)", "values": [{"measurement": "bacterial growth OD600", "setting": "polymyxin B 1 µg/mL", "value": 0.727}]}, {"smiles": "COC(=O)C1CCCCN1C1CCN(c2ccc(CC(=O)NCCc3cccc(F)c3)cc2)CC1", "note": "(stereo not given)", "values": [{"measurement": "bacterial growth OD600", "setting": "polymyxin B 0.75 µg/mL", "value": 0.919}]}]}
